Assay results published in article PMC6733937.
No constants are given. Whether binding was seen depends on the method and setting. In cells and extracts the contact can be indirect. Some results given as binding are weak or reduced against the parent protein; the word gives no strength.

Protein sequences, listed by entry. Tags and fused reporters are not part of them.
UniProt Q13950: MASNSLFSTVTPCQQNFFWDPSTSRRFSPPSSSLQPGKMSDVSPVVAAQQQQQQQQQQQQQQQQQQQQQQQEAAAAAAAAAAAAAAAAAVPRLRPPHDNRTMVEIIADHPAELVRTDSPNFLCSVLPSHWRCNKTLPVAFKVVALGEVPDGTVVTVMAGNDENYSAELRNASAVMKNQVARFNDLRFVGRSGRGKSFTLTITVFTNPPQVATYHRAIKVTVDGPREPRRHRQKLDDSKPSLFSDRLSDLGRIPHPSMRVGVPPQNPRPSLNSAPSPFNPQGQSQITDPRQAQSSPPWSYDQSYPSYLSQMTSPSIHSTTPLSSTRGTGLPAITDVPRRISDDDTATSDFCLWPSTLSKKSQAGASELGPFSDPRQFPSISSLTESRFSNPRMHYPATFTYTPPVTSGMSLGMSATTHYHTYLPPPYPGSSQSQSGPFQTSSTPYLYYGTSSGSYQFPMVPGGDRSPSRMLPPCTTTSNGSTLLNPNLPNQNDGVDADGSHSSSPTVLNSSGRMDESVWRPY

Target: Runt-related gene 2 (RUNX2) (human (in human BMSCs)) (UniProt Q13950)
Test: co-IP; BMSC lysate; immunoprecipitation kit (Abcam); supernatant incubated with antibodies overnight at 4 °C, Protein A/G Sepharose beads 1 h at 4 °C, washed 3 times; western blotting; which protein was precipitated is not told

B1: LIM and cysteine-rich domains-1 (LMCD1) (protein, UniProt Q9NZU5 1-365)
chain: MAKVAKDLNPGVKKMSLGQLQSARGVACLGCKGTCSGFEPHSWRKICKSCKCSQEDHCLTSDLEDDRKIGRLLMDSKYSTLTARVKGGDGIRIYKRNRMIMTNPIATGKDPTFDTITYEWAPPGVTQKLGLQYMELIPKEKQPVTGTEGAFYRRRQLMHQLPIYDQDPSRCRGLLENELKLMEEFVKQYKSEALGVGEVALPGQGGLPKEEGKQQEKPEGAETTAATTNGSLSDPSKEVEYVCELCKGAAPPDSPVVYSDRAGYNKQWHPTCFVCAKCSEPLVDLIYFWKDGAPWCGRHYCESLRPRCSGCDEIIFAEDYQRVEDLAWHRKHFVCEGCEQLLSGRAYIVTKGQLLCPTCSKSKRS
- binding: binds
